US20260022165A1 (US Dept. of Health and Human Services, published 2026)
No constants are given. Whether binding was seen depends on the method and setting. Some binding calls cover weakened binding; strength is not graded here. Tags and fused reporters may be left off the sequences shown.

The chains behind the UniProt entries cited, without tags or fusion partners. Residues count along the entry.
UniProt P01024, residues 23-1663: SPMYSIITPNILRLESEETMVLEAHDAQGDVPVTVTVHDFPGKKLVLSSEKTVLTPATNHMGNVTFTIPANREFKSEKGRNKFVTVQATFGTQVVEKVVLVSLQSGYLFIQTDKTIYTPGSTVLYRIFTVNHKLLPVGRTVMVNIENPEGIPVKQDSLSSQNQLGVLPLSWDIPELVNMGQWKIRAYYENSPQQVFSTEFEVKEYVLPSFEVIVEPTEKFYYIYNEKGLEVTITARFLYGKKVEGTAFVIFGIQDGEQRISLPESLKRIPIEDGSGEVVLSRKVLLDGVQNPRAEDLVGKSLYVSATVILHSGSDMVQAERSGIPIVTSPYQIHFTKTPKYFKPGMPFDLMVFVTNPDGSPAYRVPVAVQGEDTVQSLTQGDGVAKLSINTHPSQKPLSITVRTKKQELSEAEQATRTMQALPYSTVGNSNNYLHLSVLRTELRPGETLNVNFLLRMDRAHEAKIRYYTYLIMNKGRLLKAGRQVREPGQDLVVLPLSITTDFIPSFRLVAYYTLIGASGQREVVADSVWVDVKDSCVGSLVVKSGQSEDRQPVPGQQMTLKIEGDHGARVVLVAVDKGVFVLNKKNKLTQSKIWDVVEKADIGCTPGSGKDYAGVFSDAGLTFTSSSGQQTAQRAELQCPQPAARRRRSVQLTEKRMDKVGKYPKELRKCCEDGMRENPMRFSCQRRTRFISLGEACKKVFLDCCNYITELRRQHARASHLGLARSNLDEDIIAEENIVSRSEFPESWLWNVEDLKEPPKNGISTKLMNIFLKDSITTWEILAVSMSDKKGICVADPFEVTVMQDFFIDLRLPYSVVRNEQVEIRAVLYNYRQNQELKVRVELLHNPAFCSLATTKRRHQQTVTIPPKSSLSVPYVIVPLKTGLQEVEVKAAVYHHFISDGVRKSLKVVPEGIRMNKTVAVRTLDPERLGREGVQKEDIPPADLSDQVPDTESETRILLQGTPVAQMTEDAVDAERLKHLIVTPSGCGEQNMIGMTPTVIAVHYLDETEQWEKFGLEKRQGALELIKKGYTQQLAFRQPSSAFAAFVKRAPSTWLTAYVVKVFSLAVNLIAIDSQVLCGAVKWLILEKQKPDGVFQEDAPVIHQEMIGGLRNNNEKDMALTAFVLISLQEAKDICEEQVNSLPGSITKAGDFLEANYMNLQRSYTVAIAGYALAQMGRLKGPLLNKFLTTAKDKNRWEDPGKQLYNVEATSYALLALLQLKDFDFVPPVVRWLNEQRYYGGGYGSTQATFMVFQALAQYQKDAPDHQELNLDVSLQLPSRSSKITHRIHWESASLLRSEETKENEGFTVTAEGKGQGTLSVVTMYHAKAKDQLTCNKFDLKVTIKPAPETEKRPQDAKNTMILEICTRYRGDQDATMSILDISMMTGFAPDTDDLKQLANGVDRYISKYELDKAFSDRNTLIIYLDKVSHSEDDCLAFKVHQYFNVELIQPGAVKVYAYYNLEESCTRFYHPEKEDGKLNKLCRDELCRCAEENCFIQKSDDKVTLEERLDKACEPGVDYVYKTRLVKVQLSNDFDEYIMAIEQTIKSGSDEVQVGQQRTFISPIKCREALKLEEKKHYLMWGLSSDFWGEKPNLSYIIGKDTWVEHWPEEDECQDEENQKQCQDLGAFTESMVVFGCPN

B1: Ab3 Fab (His-tagged rabbit/human chimeric anti-C3d Fab) (Fab, V domains shown)
VH: QKQLVESGGRLVTPGGSLTLTCTISGIDLNTYGMTWVRQAPGKGLEYIGIIVSSGNTYYANWAQGRFTISKTSTTVDLKMTSLTASDTATYFCARGLGRAYSSGYGMDGWGPGTLVTVSS
VL: DPVLTQTPSSTSAAVGGTVTIKCQASQNIYTSLAWYQQKPGQPPKLLIYGASNLASGVPSRFKGSRSGTEYTLTISGVEREDAATYYCLGSYTQIDTTFGGGTKLEIK
notes: Fab with rabbit Vκ/human Cκ/rabbit VH, His-tagged; also called Ab3 (κ)
B2: Ab4 Fab (His-tagged rabbit/human chimeric anti-C3d Fab) (Fab, V domains shown)
VH: QSLEESGGRLVTPGTPLTLTCTVSGFSLSRYTMAWVRQAPGKGLEYIGWIDSSGSTYYASWAKGRFTISKTSSTTVDLKMTSLTTEDTATYFCASGNDGGDPLYYGMDPWGPGTLVTVSS
VL: DGVMTQTPSSTSAAVGGTVTIKCQASQSIRSWLSWYQQKPGQPPKLLIYEASKLASGVPSRFKGSRSGTEYTLAISGVQREDAATYYCLGSIASDDTAFGAGTNVEIK
notes: Fab with rabbit Vκ/human Cκ/rabbit VH, His-tagged; also called Ab4 (κ)
B3: Ab2 Fab (His-tagged rabbit/human chimeric anti-C3d Fab) (Fab, V domains shown)
VH: QSVEESGGRLVTPGTPLTLTCTVSGFSLSSYAMTWVRQAPGKGLEWIGVIGTSGMRYYANWAKGRFTISKTSTTVDLKITSPTTEDTATYFCARANFYVGNDESTDAFDPWGPGTLVTVSS
VL: ALVMTQTPPSLSASVGETVRIRCLASEDIYNTISWYQQKPGKPPTLLIYGASNLKSGVPPRFSGSGSGTDYTLTIGGVQSEDAATYYCLGGYSYSSTGLTFGAGTKVEIK
notes: Fab with rabbit Vκ/human Cκ/rabbit VH, His-tagged; also called Ab2 (κ)
B4: Ab5 Fab (His-tagged rabbit/human chimeric anti-C3d Fab) (Fab, V domains shown)
VH: QSLEESGGRLVTPGTPLTLTCTVSGFSLSTYTLGWVRQAPGKGLEYIGWIDSSGSAYYASWAKGRFTISKASSTTVDLKMAGLTTEDTATYFCASGNTGGDPLYYGMDPWGPGTLVTVSS
VL: DPVLTQTPSSTSAAVGGTVTIKCQASQNIGRWLAWYQQKPGQPPKLLIYRASDLASGVPSRFKGSGSGTQFTLTISGVQREDAATYYCLGSYSSSDSAFGGGTEVVVK
notes: Fab with rabbit Vκ/human Cκ/rabbit VH, His-tagged; also called Ab5 (κ)

molecular target: T1, full length human C3 present in plasma (human, UniProt P01024 23-1663); assay: ELISA, competition; His-tagged Fab (1 ug/mL) on zymosan opsonized with human C3 fragments in the presence of normal human serum (printed PNHCS) at 1/10, 1/50, 1/250 as source of full-length C3; HRP mouse anti-His mAb; normalized to media without serum
T1 construct: mature; Not purified: it stood in the assay as dilutions of normal human serum; also called full-length, soluble C3; C3 in NHS

**Q.** B1 was tested. Which binding did it give?
**A.** binds

**Q.** For B2, which binding is on record?
**A.** binds

**Q.** Which binding does the source give for B3 here?
**A.** binds

**Q.** For B4, which binding is on record?
**A.** binds
